Data taken from paper PMC5536908.
These are yes or no findings as the source states them, for the method shown. Binding seen in cells or lysates may run through a third protein. For some assays here: Binding calls can cover weak binding; strength is not graded here. Where a sequence is shown, tags or fusion partners need not be part of it. Values belong to the molecule of their own block, whether it stands above or below them.

Columns and labels:
Assay in all cases: pull-down; GST fusion proteins (or GST) bound to glutathione Sepharose 4B beads; GFP-tagged proteins from D. discoideum lysates; 10 mM Tris-HCl pH 7.5, 100 mM NaCl added to the lysate; blot probed with anti-GFP mAb K3-184-2; only the target purified
[1] = biological target: T1, GST-DUF3735 (GPHR residues 174-270) (D. discoideum) (UniProt Q54QM5)
T1 sequence: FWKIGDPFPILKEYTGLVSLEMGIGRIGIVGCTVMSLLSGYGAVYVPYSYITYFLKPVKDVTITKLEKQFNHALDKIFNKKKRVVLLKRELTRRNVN

[2] = biological target: GST-TPP1B (residues 21-598) (D. discoideum)
[3] = biological target: GST-TPP1F (residues 21-702, lacking the signal peptide) (D. discoideum)
[4] = biological target: GST-catalytic domain of TPP1F (residues 201-702) (D. discoideum)
[5] = biological target: GST-prodomain of TPP1F (residues 21-200) (D. discoideum)

binding [1]: binds
Molecule: TPP1F-GFP (amino acid residues 1-702) (D. discoideum) (enzyme)

binding [2]: binds
binding [3]: binds
binding [4]: no binding
binding [5]: binds
B1: GPHR-GFP (Dictyostelium discoideum Golgi pH regulator, GFP-tagged) (protein, UniProt Q54QM5 1-547)
chain: MDTFTIEEIVKFDGGGGGISTINSNNDNIGIPSNTFEMIISTIQHFLDRSSSVASTIAVFVLSFILFFMFGWFYFLKILFRDYEVKKVFVQLSFSITFALSLTLFELIFFEIMDFMDREWRYRFWEFDLTLMSINLILVLPYYQFYLLVLAYGFSKRKTLFFSLVLLVLYLILFWKIGDPFPILKEYTGLVSLEMGIGRIGIVGCTVMSLLSGYGAVYVPYSYITYFLKPVKDVTITKLEKQFNHALDKIFNKKKRVVLLKRELTRRNVNNNNNNNNNYDTYNYNNNYNNNSNNNNNNNNSNNNNNNNLPIIGPIFSKIYNLWNVGYHHQLSRPIDDIKQLEREIKQLEDLNRDLFTQIHELKLERLRIQFSTTLRGKFYNWLGYFFSIYWKKKSALNIVFDRRGGMDPVTRGLDIALRYFHFQVDVTFWSQHISFILVGLMTASSIRGFLNQILKVFHEYSSSLSSNNIVLILAQVMGMYFISSVLMMRTSMPEIYTRFIVTQILGDIEFSFYHRWFDFIFIPSAIITTLALIFMSKSSTFHLNDE
